From paper PMC8602323
Results are given in words; binding and its absence hold for the method and conditions named. Binding seen in cells or lysates may run through a third protein. A result given as binding can be weak or reduced; the word gives no strength. For some of these results: Where a sequence is shown, tags or fusion partners need not be part of it.

The chains behind the UniProt entries cited, without tags or fusion partners.
UniProt Q14289: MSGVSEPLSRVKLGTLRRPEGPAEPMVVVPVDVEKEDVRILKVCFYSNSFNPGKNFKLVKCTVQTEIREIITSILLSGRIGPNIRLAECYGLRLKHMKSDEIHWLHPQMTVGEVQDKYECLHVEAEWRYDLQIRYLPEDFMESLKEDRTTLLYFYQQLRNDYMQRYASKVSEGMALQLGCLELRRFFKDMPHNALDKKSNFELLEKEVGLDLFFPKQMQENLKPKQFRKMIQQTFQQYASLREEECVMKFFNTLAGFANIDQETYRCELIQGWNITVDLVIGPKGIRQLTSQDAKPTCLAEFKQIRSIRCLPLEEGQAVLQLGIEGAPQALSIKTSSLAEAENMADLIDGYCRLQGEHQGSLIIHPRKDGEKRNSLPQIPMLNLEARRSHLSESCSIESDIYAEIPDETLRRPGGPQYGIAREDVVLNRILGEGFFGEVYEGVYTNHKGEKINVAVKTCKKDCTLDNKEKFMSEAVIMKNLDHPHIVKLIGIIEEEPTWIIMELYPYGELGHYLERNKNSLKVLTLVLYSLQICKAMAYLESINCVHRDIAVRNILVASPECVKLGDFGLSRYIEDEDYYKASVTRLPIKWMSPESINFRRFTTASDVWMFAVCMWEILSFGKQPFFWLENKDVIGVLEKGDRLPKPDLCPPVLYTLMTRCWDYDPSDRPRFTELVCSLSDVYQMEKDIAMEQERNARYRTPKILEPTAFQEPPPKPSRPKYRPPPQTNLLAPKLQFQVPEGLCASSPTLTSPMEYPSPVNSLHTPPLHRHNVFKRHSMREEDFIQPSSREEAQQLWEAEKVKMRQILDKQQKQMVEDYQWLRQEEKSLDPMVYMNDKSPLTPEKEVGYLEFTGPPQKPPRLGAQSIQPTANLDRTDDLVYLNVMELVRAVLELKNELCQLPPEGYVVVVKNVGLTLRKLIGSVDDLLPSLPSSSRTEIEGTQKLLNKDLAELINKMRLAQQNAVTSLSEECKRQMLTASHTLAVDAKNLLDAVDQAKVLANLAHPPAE

Legend:
Test in all cases: co-IP; Myc-tagged kinases and HA-tagged IRF5 co-expressed in 293 ET cells; lysates immunoprecipitated with anti-myc antibody; western blot
[1] = target: Myc-tagged PYK2 (pEAK8-myc) (UniProt Q14289)
Myc-tagged ARK5 = target: T1, Myc-tagged ARK5 (UniProt O60285)
T1 sequence: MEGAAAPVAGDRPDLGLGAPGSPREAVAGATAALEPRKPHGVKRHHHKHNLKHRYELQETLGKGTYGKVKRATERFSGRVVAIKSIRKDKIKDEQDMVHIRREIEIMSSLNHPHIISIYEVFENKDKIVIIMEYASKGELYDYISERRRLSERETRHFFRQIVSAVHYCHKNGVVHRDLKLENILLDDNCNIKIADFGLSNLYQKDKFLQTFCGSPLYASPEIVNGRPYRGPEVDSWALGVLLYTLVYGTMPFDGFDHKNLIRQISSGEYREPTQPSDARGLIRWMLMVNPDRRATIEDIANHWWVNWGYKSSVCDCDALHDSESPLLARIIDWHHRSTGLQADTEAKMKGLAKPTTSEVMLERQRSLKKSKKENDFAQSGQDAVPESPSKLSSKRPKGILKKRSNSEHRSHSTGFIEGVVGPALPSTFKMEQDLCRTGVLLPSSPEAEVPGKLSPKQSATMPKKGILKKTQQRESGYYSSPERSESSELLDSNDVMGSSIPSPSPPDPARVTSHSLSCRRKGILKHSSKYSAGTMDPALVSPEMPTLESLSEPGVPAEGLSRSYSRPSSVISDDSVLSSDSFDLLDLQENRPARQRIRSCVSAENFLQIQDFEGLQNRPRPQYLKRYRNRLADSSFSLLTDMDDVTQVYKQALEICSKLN

Myc-tagged JNK2 = Myc-tagged JNK2 (UniProt P45984)
Myc-tagged HIPK4 = target: T2, Myc-tagged HIPK4 (UniProt Q8NE63)
T2 sequence: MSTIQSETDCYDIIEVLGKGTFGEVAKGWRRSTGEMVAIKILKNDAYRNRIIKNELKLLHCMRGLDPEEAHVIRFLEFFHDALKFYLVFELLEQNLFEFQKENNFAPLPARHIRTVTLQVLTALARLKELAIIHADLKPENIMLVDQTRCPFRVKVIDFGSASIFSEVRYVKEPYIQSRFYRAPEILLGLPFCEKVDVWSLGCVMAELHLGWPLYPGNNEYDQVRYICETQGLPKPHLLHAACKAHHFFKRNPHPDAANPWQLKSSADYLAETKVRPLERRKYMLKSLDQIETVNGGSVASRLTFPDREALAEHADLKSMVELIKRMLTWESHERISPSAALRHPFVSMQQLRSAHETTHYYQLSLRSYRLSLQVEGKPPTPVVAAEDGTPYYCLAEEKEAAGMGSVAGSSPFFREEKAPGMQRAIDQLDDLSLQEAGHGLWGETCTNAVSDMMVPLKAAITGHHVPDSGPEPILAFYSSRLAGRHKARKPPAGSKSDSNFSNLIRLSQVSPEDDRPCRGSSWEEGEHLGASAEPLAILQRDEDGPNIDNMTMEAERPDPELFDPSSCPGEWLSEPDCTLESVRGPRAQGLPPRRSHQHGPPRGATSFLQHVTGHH

- binding [1]: binds
- binding (Myc-tagged ARK5): binds weakly
- binding (Myc-tagged JNK2): binds weakly
- binding (Myc-tagged HIPK4): binds weakly
Substance: HA-tagged IRF5 (from UniProt Q13568-3)
